{"source": "PubChem BioAssay AID1259254 (NCATS, 2017)", "purpose": "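Genome-wide screen for genes that prevent DNA re-replication in cancer cells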 (primary screen)", "system": "human HCT116 colorectal cancer cells", "reagents": "single siRNA against human genes", "time to read-out": "3 days", "read-out": "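Imaged Hoechst DNA stain sorts each cell into a cycle phase by DNA amount; per plate, G2 fraction set to 0% for non-targeting and 100% for GMNN siRNA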", "direction": "G2 robust z-score: higher = more G2 cells, more excess DNA replication", "hit rule": "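An siRNA counts as active if its G2 robust z-score lies at least 5 MADs above the screen median; here such calls match roughly 38% of GMNN control or more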", "note": "In all, the deposit lists about 59,000 reagents; below is an unselected part. About 1,550 of them (2.6%) were called active. 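G2 share is only a proxy for re-replication; each gene was hit by three separate siRNAs, and active genes were retested.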 The numbers tell different reagents against one gene apart. Further read-outs or replicates are left out here. Not given: the amount of reagent."}
{"target gene": "MED10", "siRNA no.": 1, "G2 robust z-score": -1.16, "activity call": "inactive"}
{"target gene": "MED10", "siRNA no.": 2, "G2 robust z-score": 0.972, "activity call": "inactive"}
{"target gene": "MED10", "siRNA no.": 3, "G2 robust z-score": -0.421, "activity call": "inactive"}
{"target gene": "LOC440742", "siRNA no.": 1, "G2 robust z-score": -0.485, "activity call": "inactive"}
{"target gene": "LOC440742", "siRNA no.": 2, "G2 robust z-score": 0.653, "activity call": "inactive"}
{"target gene": "LOC440742", "siRNA no.": 3, "G2 robust z-score": 0.347, "activity call": "inactive"}
{"target gene": "STARD7", "siRNA no.": 1, "G2 robust z-score": 1.7, "activity call": "inactive"}
{"target gene": "STARD7", "siRNA no.": 2, "G2 robust z-score": 2.05, "activity call": "inactive"}
{"target gene": "STARD7", "siRNA no.": 3, "G2 robust z-score": 1.2, "activity call": "inactive"}
{"target gene": "RIMS4", "siRNA no.": 1, "G2 robust z-score": -0.0967, "activity call": "inactive"}
{"target gene": "RIMS4", "siRNA no.": 2, "G2 robust z-score": -0.522, "activity call": "inactive"}
{"target gene": "RIMS4", "siRNA no.": 3, "G2 robust z-score": -0.906, "activity call": "inactive"}
{"target gene": "P2RX5", "siRNA no.": 1, "G2 robust z-score": -0.0133, "activity call": "inactive"}
{"target gene": "P2RX5", "siRNA no.": 2, "G2 robust z-score": -0.633, "activity call": "inactive"}
{"target gene": "P2RX5", "siRNA no.": 3, "G2 robust z-score": 0.681, "activity call": "inactive"}
{"target gene": "LRRC58", "siRNA no.": 1, "G2 robust z-score": 0.0125, "activity call": "inactive"}
{"target gene": "LRRC58", "siRNA no.": 2, "G2 robust z-score": 1.05, "activity call": "inactive"}
{"target gene": "LRRC58", "siRNA no.": 3, "G2 robust z-score": -0.0476, "activity call": "inactive"}
{"target gene": "NSFP1", "siRNA no.": 1, "G2 robust z-score": -0.538, "activity call": "inactive"}
{"target gene": "NSFP1", "siRNA no.": 2, "G2 robust z-score": -0.473, "activity call": "inactive"}
{"target gene": "NSFP1", "siRNA no.": 3, "G2 robust z-score": -0.558, "activity call": "inactive"}
{"target gene": "AIP", "siRNA no.": 1, "G2 robust z-score": -0.0724, "activity call": "inactive"}
{"target gene": "AIP", "siRNA no.": 2, "G2 robust z-score": -1.03, "activity call": "inactive"}
{"target gene": "AIP", "siRNA no.": 3, "G2 robust z-score": -0.717, "activity call": "inactive"}

Laid out differently: entries from further up.
{"target gene":"AIP","siRNA no.":1,"G2 robust z-score":-0.0724,"activity call":"inactive"}
{"target gene":"AIP","siRNA no.":2,"G2 robust z-score":-1.03,"activity call":"inactive"}
{"target gene":"AIP","siRNA no.":3,"G2 robust z-score":-0.717,"activity call":"inactive"}
